{"source": "paper PMC3012091", "about": "“The Concentration of Soluble Extracellular Amyloid-β Protein in Acute Brain Slices from CRND8 Mice” (PLoS ONE, 2010)", "key": {"[1]": {"assay": "Diffusive loss of fluorescent Aβ1–42 from pre-loaded acute slices, 2-photon imaging", "design": "species or system mouse"}, "[2]": {"assay": "Diffusion of fluorescent Aβ1–42 in acute hippocampal slice, pressure ejection, 2-photon line scans", "design": "species or system mouse", "conditions": "6 locations"}}}
{"substance": "HiLyte Fluor 488 labeled Aβ(1–42) [fluorescent Aβ1–42]", "values": [{"measurement": "time constant of exponential fit to decay in fluorescence", "setting": "[1]; single site of figure 4, slice pre-incubated with 50 µM for 3.5 hours, focal plane 100 µm below surface", "value": 25.2, "unit": "min"}, {"measurement": "time constant of decline in fluorescence intensity (loss from slice)", "setting": "[1]; slices pre-loaded with 50 µM for 2–3.5 hours, imaged 100 µm below surface during perfusion with Aβ-free ACSF at 35–37°C, n = 3 slices", "value": "18.0 ± 7.0", "unit": "min"}, {"measurement": "width of the Gaussian fit at end", "setting": "[2]; after 705±145 ms of diffusion", "value": "13.7±2.46", "unit": "µm"}, {"measurement": "width of the Gaussian fit at start", "setting": "[2]; fluorescence line scan after pressure ejection", "value": "6.5±1.0", "unit": "µm"}]}
